Test results as given in patent US8309097.
No constants are given. Whether binding was seen depends on the method and setting. Some entries that bind do so weakly or less than the wild type.

Protein sequences, listed by entry. Tags and fused reporters are not part of them. Lines headed by an entry give the natural chain unless they say otherwise; changes in a name come on top. Residues count along the entry.
UniProt P13688: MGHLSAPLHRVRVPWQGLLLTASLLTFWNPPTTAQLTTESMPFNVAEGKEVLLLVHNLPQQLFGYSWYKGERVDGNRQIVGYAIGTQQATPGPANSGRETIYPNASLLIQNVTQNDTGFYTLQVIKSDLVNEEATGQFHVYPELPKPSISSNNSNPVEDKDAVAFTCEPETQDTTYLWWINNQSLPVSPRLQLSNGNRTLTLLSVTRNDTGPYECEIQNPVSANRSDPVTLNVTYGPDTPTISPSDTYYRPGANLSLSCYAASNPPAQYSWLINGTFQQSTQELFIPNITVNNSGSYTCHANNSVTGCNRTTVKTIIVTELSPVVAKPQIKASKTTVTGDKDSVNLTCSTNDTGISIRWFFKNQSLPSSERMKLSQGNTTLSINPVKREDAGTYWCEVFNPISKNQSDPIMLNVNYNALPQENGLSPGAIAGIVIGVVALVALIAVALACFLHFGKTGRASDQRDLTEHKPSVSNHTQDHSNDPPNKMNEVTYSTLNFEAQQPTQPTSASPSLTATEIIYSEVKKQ
CEACAM1 (CD66a), native, from PMN: residues 35-526 of P13688
CD66a-Fc: residues 35-428 of P13688
UniProt Q9NNX6: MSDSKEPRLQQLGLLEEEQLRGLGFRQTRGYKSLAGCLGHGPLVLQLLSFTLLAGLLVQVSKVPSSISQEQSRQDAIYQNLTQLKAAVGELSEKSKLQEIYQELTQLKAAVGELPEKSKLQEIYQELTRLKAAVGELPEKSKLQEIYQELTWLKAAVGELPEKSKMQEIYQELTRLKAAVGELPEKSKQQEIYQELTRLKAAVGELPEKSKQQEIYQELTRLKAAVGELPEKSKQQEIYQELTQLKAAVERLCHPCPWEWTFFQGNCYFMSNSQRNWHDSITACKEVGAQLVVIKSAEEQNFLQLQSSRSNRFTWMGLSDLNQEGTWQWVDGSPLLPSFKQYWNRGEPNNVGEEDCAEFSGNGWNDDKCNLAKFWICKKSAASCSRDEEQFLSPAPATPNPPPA

Assays:
[1] = target: CD66a-Fc (UniProt P13688); assay: beads coated with CD66a-Fc on immature DC and K562-DC-SIGN
[2] = target: CEACAM1 (CD66a), native, from PMN (UniProt P13688); assay: summary of the results of FIGS. 54, 55 and 59
[3] = target: CD66a-Fc (UniProt P13688); assay: beads coated with CD66a-Fc, immature DC and K562-DC-SIGN
[4] = target: CEACAM1 (CD66a), native, from PMN (UniProt P13688); assay: beads coated with PMN CEACAM1, FACS

Measured: binding

DC-SIGN (CD209), wild type, expressed on K562 transfectants or immature dendritic cells (from UniProt Q9NNX6 1-404) (receptor)
binds: all assays above
